Source: PubChem BioAssay AID1259308 (NCATS, 2017)

Screen: 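Genes whose loss raises luciferase production in HEK293 cells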 (primary screen)
Cell system: human HEK293 embryonic kidney cells stably expressing firefly luciferase (HEK-CMV-Luc2-Hygro)
Knock-down reagent: single siRNA against human genes, 0.8 pmol siRNA per well
Duration: 72 h
Detection: 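Reporter luminescence and viable-cell signal on separate replicate plates, given as percent of non-targeting control and median/MAD z-scores, plus per-cell luciferase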
Reading the numbers: total luciferase, z-score: higher = more reporter protein produced
Call rule: 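Active when the median/MAD z-score for overall luciferase is greater than 3; a gene was taken forward for validation with new siRNAs if at least two of its three siRNAs passed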
Calls: active = raised luciferase; inactive = no rise
Here is a random part of about 59,000 reagents. In the full data, about 1,510 (2.6%) are marked active. 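Calls use total luciferase alone and ignore viability, so some active siRNAs may act by altering cell number.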 Not all columns of the deposit are shown.

gene knocked down | PubChem SID | total luciferase, z-score | outcome
YIF1A (GeneID 10897) | SID160729455 | -0.539 | inactive
YIF1A (GeneID 10897) | SID160729456 | -0.77 | inactive
YIF1A (GeneID 10897) | SID160729458 | 1.71 | inactive
CD96 (GeneID 10225) | SID160727274 | -2.3 | inactive
CD96 (GeneID 10225) | SID160727282 | 1.22 | inactive
CD96 (GeneID 10225) | SID160727288 | 0.243 | inactive
ADAMTS10 (GeneID 81794) | SID160750983 | 2.02 | inactive
ADAMTS10 (GeneID 81794) | SID160750984 | -2.08 | inactive
ADAMTS10 (GeneID 81794) | SID160750985 | -1.23 | inactive
CHL1 (GeneID 10752) | SID160729150 | 0.619 | inactive
CHL1 (GeneID 10752) | SID160729151 | -0.635 | inactive
CHL1 (GeneID 10752) | SID160729152 | 0.187 | inactive
ARHGAP25 (GeneID 9938) | SID160723491 | 0.814 | inactive
ARHGAP25 (GeneID 9938) | SID160723492 | 0.215 | inactive
ARHGAP25 (GeneID 9938) | SID160723493 | -1.53 | inactive

Reprinted from the listing for reference:
gene knocked down | PubChem SID | total luciferase, z-score | outcome
CHL1 (GeneID 10752) | SID160729152 | 0.187 | inactive
ARHGAP25 (GeneID 9938) | SID160723491 | 0.814 | inactive
ARHGAP25 (GeneID 9938) | SID160723492 | 0.215 | inactive
ARHGAP25 (GeneID 9938) | SID160723493 | -1.53 | inactive

More results follow:
gene knocked down | PubChem SID | total luciferase, z-score | outcome
GCGR (GeneID 2642) | SID160723773 | -0.16 | inactive
GCGR (GeneID 2642) | SID160769903 | 2.63 | inactive
GCGR (GeneID 2642) | SID160769911 | -1.39 | inactive
PSMA7 (GeneID 5688) | SID160715183 | -0.718 | inactive
PSMA7 (GeneID 5688) | SID160715184 | -0.905 | inactive
PSMA7 (GeneID 5688) | SID160731565 | -1.69 | inactive
UST (GeneID 10090) | SID160725231 | -0.89 | inactive
UST (GeneID 10090) | SID160725235 | 1.16 | inactive
UST (GeneID 10090) | SID160725244 | 0.277 | inactive
